Measurements reported in paper PMC6690992.
Results are given in words; binding and its absence hold for the method and conditions named. In cells and extracts the contact can be indirect. Some binding calls cover weakened binding; strength is not graded here.

Sequences of proteins named here, by UniProt entry; tags and fusion partners are left off.
UniProt Q99962: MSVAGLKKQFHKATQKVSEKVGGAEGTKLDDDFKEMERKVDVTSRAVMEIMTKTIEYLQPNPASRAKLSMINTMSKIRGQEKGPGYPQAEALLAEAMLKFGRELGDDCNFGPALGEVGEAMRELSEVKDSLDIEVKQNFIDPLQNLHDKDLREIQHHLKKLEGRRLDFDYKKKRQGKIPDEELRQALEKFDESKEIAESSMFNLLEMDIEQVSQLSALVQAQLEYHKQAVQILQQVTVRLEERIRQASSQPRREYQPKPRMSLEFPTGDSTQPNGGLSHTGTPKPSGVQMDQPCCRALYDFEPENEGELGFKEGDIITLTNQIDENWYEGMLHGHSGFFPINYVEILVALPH

T1: SPANXB1 (human (endogenous in MDA-MB-231)) (UniProt Q9NS25)
T1 sequence: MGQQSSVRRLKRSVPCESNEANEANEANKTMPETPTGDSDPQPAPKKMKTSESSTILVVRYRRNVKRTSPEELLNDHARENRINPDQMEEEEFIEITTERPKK

T2: SPANXB1 (UniProt Q9NS25)
T2 sequence: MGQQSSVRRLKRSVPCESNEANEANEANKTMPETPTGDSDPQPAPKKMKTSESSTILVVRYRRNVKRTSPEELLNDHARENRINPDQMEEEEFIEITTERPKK


Legend:
[1] = molecular target: T1, SPANXB1 (human (endogenous in MDA-MB-231)); assay: co-IP; whole cell lysates of naïve MDA-MB-231 cells; precipitated in both directions, Western blot (Fig. S4)
[2] = molecular target: T2, SPANXB1; assay: co-IP; whole cell lysates of SPANXB1-overexpressing HMLE cells; precipitated in both directions, Western blot
[3] = molecular target: SH3GL2 (human (endogenous in MDA-MB-231)) (UniProt Q99962); assay: co-IP; whole cell lysates of naïve MDA-MB-231 cells; precipitated in both directions, Western blot (Fig. S4)
[4] = molecular target: SH3GL2 (human (endogenous in HMLE)) (UniProt Q99962); assay: co-IP; whole cell lysates of SPANXB1-overexpressing HMLE cells; precipitated in both directions, Western blot

Row | Molecule | binding [1] | binding [2] | binding [3] | binding [4]
1 | SH3GL2 (from UniProt Q99962 1-352) | binds | binds | – | –
2 | SPANXB1 (protein, UniProt Q9NS25 1-103) MGQQSSVRRLKRSVPCESNEANEANEANKTMPETPTGDSDPQPAPKKMKTSESSTILVVRYRRNVKRTSPEELLNDHARENRINPDQMEEEEFIEITTERPKK | – | – | binds | binds
